Measured values taken from PubChem BioAssay AID2685 (National Center for Advancing Translational Sciences (NCATS), 2010).
This is one part of the list. Shown are side measurements of this screen, not its main read-out; they come without a call. The list favours compounds with an active or inconclusive main result. Potencies come from curve fits of mixed quality, noted in brackets.

Assay: qHTS Assay for Lipid Storage Modulators in Drosophila S3 Cells;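 as to cell number change: cells counted by Cell Tracker Red CMTPX staining in the red channel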
Details: BODIPY lipid droplet fluorescence, 18-24 h; for cell number change: measured here: cell count max response, cells fed with added oleic acid
Outline: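 Drosophila S3 cells loaded with oleic acid (400 uM, as added) and compounds at several concentrations; lipid droplets imaged by 488-nm laser-scanning cytometry, 500–530 nm intensity and object ratio to cell channel. Percent activity normalized to 20 uM Triacsin C.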

[1] = measured here: cell number channel AC50, cells fed with added oleic acid
[2] = measured here: lipid fluorescence (Fed channel) AC50, cells fed with added oleic acid

| Compound | cell number change | AC50 [1] | AC50 [2] |
| --- | --- | --- | --- |
| CCOP(=O)(OCC)c1nc(-c2ccccc2)oc1N1CCCCC1 | 30.3% | 0.366 µM [rising, full curve] | 6.51 µM [rising, single point] |
| O=C(CSc1n[nH]c(=O)[nH]c1=O)N/N=C/c1ccccc1O | 1.02% |  | 20.6 µM [rising, single point] |
| O=C(Nc1ccc2c(c1)OCCO2)C1CCN(C(=O)c2ccc([N+](=O)[O-])cc2)CC1 | 114% | 29.1 µM [rising, single point] | 29.1 µM [rising, single point] |
| CCC1CCCCN1C(=O)/C=C/c1ccc2c(c1)OCO2 (stereo unspecified) | 1.32% |  | 29.1 µM [rising, single point] |
| COc1cccc(-c2nn(C)c3sc(C(=O)NCc4ccccn4)cc23)c1 | 11.6% |  | 4.11 µM [rising, full curve] |
| O=C(Nc1cccc(NC(=O)c2ccccc2Cl)c1)c1ccc(F)cc1 | -12.3% |  |  |
| O=C(COC(=O)CNS(=O)(=O)c1cccc(F)c1)NCCc1ccccc1 | -0.803% |  |  |
| CCOC(=O)c1[nH]c(C)c(C(=O)NC2CCN(C(=O)OCC)CC2)c1C | -14.3% |  | 0.058 µM [rising, full curve, poor fit] |
| O=C1NC(=Nc2ccccc2Cl)SC1(CO)CO | -21.4% |  | 14.6 µM [falling, single point] |
| CN(C)c1ccc(N=Cc2nc(-c3ccccc3)oc2OC(=O)c2ccccc2)cc1 | 8.73% | 6.51 µM [falling, single point] |  |
| COc1ccc(NC(=S)NNC(=O)C2CC2c2ccc(C)cc2)cc1 (stereo unspecified) | 43.3% | 9.2 µM [rising, partial curve] | 0.651 µM [rising, single point] |
| O=c1ccc(-c2ccc(S(=O)(=O)Nc3cccc(F)c3)o2)n[nH]1 | 43.9% | 16.4 µM [rising, single point] |  |
| CCN=C1SC(C(=O)Nc2cccc(C(=O)O)c2)CC(=O)N1CC (stereo unspecified) | -2.86% |  | 5.8 µM [rising, full curve] |
| COc1ccc(-n2c(SCC(=O)NCCCN3CCCC3=O)nnc2C(C)N2CCCCC2)cc1 (stereo unspecified) | 3.7% | 1.64 µM [falling, single point] | 5.8 µM [falling, single point] |
| Cc1csc(NC(=O)c2cc3c(s2)CCCCC3)n1 | 60% |  | 18.4 µM [rising, partial curve] |
| Cc1ccccc1-c1nnn(CC(=O)N2CCN(C(=O)c3ccco3)CC2)n1 | 24.9% |  | 14.6 µM [rising, single point] |
| O=C(O)c1cccc2c1C(=O)N(Cc1ccncc1)C2 | 4.1% |  | 8.2 µM [rising, partial curve] |
| CSc1nsc(SCC(=O)Nc2ccc(C(C)=O)cc2)n1 | 25.8% | 0.0206 µM [rising, full curve] |  |
| CCCCN(CCCC)S(=O)(=O)c1ccc2[nH]c(=O)[nH]c2c1 |  |  | 6.51 µM [rising, single point] |
| COc1cccc(CNc2ccc(F)c(Cl)c2)c1O | 95% | 6.51 µM [falling, partial curve, poor fit] | 1.64 µM [falling, partial curve, poor fit] |

A second format for part of the listing above:
Compound | cell number change | AC50 [1] | AC50 [2]
O=C1NC(=Nc2ccccc2Cl)SC1(CO)CO | -21.4% |  | 14.6 µM [falling, single point]
O=c1ccc(-c2ccc(S(=O)(=O)Nc3cccc(F)c3)o2)n[nH]1 | 43.9% | 16.4 µM [rising, single point] | 

(listing goes on)

| Compound | cell number change | AC50 [1] | AC50 [2] |
| --- | --- | --- | --- |
| CCN(CC(=O)NCCc1ccc(S(N)(=O)=O)cc1)Cc1ccccc1 | 17.6% |  | 23.1 µM [rising, partial curve, poor fit] |
| Cc1ccc(S(=O)(=O)N(C)CC(=O)O/N=C(\N)c2cccc([N+](=O)[O-])c2)cc1 |  | 0.82 µM [falling, single point] |  |
| COc1ccc(S(=O)(=O)N(C)C)cc1NC(=O)Cc1c[nH]c2ccccc12 | 48.3% | 0.92 µM [rising, full curve] |  |
| COc1ccccc1CC(=O)Nc1ccc(S(=O)(=O)N2CCCCC2)cc1 | 13.3% |  |  |
| CC(=O)Nc1ccc(OCc2cnc(Cl)s2)cc1 | 75.2% | 6.51 µM [falling, single point] | 6.51 µM [falling, single point] |
| COc1ccccc1OCCn1c(=S)[nH]c2ccccc21 | -18.3% |  | 10.3 µM [falling, partial curve, poor fit] |
| CCN(C(=O)c1cc2cc3ccc(C)cc3nc2o1)c1ccc(OC)cc1 |  |  | 3.66 µM [rising, partial curve] |
| O=C(O)/C=C/C(=O)Nc1ccc(OC(F)(F)F)cc1 | -16.6% |  | 20.6 µM [falling, single point] |
| CCOc1ccccc1N1CCN(C(=O)c2cc3c(s2)CCC3)CC1 | -14.1% |  | 4.61 µM [rising, full curve] |
| O=C(O)c1ccc(N=C2NC(=O)C(CO)(CO)S2)cc1 | 0.265% |  |  |
| CN(C)CCNC(=O)c1ccc(COCC(F)(F)F)cc1 | -134% | 25.9 µM [falling, partial curve] | 25.9 µM [falling, partial curve] |
| Cc1ccc(S(=O)(=O)N2CCCC2)cc1C(=O)NCc1ccccc1CN1CCCC1 | 13.7% |  | 0.00651 µM [rising, full curve, poor fit] |
| O=C(CNC(=O)C1CCCCC1)Nc1ccc(F)c(Cl)c1 | -31.9% |  |  |
| CCOC(=O)c1ccc(-n2ccnc2)c(NC(=O)c2ccc(Cl)cc2)c1 | -0.705% |  | 29.1 µM [rising, single point] |
| COc1ccccc1N(CC(=O)NC1CCCC1)C(=O)c1csnn1 |  |  | 9.2 µM [rising, partial curve, poor fit] |
| CC(C)NC(=O)c1onc(CSc2nc3ccccc3[nH]2)c1C(=O)NC(C)C | 20.1% | 7.31 µM [rising, partial curve, poor fit] |  |
| Cc1ccc(C(=O)Nc2cccc(C(=O)NCc3ccccc3)c2)o1 | -7.22% |  | 0.291 µM [rising, full curve, poor fit] |
| Cc1ccc(N=Nc2c(C)[nH]n(C(N)=S)c2=O)cc1C | 4.55% |  |  |
| COc1cc(C(=O)Nc2ccc3c(c2)OCCO3)ccc1OC(C)C | 118% | 1.16 µM [rising, full curve] | 29.1 µM [rising, single point] |
